Experiment [1] deals with Strep-tagged SARS-CoV-2 Nsp9 (SARS-CoV-2) (UniProt P0DTD1). Kind of experiment: pull-down.
In experiment [2] the target is Strep-tagged SARS-CoV-2 Nsp13 (SARS-CoV-2) (UniProt P0DTD1). Kind of experiment: pull-down.
Experiment [3] deals with Strep-tagged SARS-CoV-2 Nsp14 (SARS-CoV-2) (UniProt P0DTD1). Put plainly: pull-down.
For experiment [4], the target named is recombinant AGO2 protein (UniProt Q9UKV8). Kind of experiment: pull-down; recombinant AGO2 alone or mixed with recombinant Nsp9, pulled down with an AGO2 antibody, Coomassie blue staining; both purified.

Results are given in words; binding and its absence hold for the method and conditions named. For some assays here: Binding seen in cells or lysates may run through a third protein. Some results given as binding are weak or reduced against the parent protein; the word gives no strength.

As to “HuR, endogenous (from UniProt Q15717 1-326)”, in experiment [1], the binding result was “binds”.
Consider “Argonaute 2 (AGO2), endogenous (from UniProt Q9UKV8 1-859)”, for which the binding entry in experiment [2], in experiment [3] and in experiment [1] was “binds” throughout.
Regarding “recombinant His-Nsp9 (from UniProt P0DTD1 4141-4253)”, in experiment [4], the binding result is “binds”.
